Measurements reported in PubChem BioAssay AID504467 (National Center for Advancing Translational Sciences (NCATS), 2011).
Hit rate of the full screen: of about 330,000 compounds, about 7,700 (2.3%) were called active. Inconclusive means that the source gave no clear call. Such entries were picked first, then a sample of the others. The call rests on the fitted dose curve; in most records, active means well fitted inhibition curve with a large enough effect; inconclusive means small, poorly fitted or top-dose-only effect, or effect the other way; inactive means flat fitted curve, though single readings scatter. Where the call is inconclusive, the potency comes from a doubtful curve fit.

Experiment: qHTS screen for small molecules that inhibit ELG1-dependent DNA repair in human embryonic kidney (HEK293T) cells expressing luciferase-tagged ELG1; further: nearly all actives have a fitted effect of over 55% in size
Details: HEK293T ELG1-luciferase reporter, luminescence, 16 h, DNA damage induced by 5-fluorouridine; activity change, negative = inhibition: at 46.1 µM (top of the series)
How it was run: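 Overnight (16 hr) co-exposure of 2,000 cells/well to 5-fluorouridine and compound at 37 °C preceded detection. Luciferase was quantified via ONE-Glo luminescence; loss of signal denotes inhibition.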
On the % scale 0 is the no-effect control and ±100 the full control effect; potency means the concentration at half of the fitted maximal effect.

SMILES | Potency | activity change, negative = inhibition
O=C(Cn1cc([N+](=O)[O-])cn1)N1CCc2ccccc2C1 | inconclusive: 18.3 µM [activator, partial curve, poor fit] | –
CCOc1ccc(CCNC(=O)C2CCN(S(=O)(=O)N3CCCCC3)CC2)cc1OCC | inconclusive: 29.1 µM [inhibitor, partial curve, poor fit] | –
COc1cccc(Cn2cccc(NC(=O)Nc3ccc(C#N)cc3)c2=O)c1 | – | inactive: -14.9%
O=C(C1=C[C@H](c2ccc3c(c2)OCO3)C[C@H](OCCCCO)O1)N1CCN(Cc2ccccc2)CC1 | – | inactive: 7.5%
COc1ccc(/C=N/NC(=O)c2ccccc2O)cc1Cn1nnc2ccccc21 | – | inactive: -2.5%
COc1ccc(-c2oc3ccc(-c4cc(OC)c(OC)c(OC)c4)cc3c2C(=O)c2ccc(OC)nc2)cc1 | inconclusive: 5.17 µM [inhibitor, single point] | –
COC(=O)C1C(=O)C=C(N2CCOCC2)CC1(C)C (stereo not drawn) | active: 4.11 µM | –
O=C(NCc1nc2ccccc2[nH]1)C1=C[C@H](c2ccc3c(c2)OCO3)C[C@H](OCc2ccc(CO)cc2)O1 | inconclusive: 13 µM [inhibitor, single point] | –
C[C@H]1CN([C@@H](C)CO)C(=O)c2cccc(NC(=O)C3CC3)c2O[C@H]1CN(C)S(=O)(=O)c1cccs1 | – | inactive: -0.199%
CN(C(=O)CSc1ccc2c(c1)OCCO2)c1ccccc1 | inconclusive: 20.6 µM [activator, partial curve] | –
Cc1cccc(OCC(=O)Nc2ccc(C(=O)Nc3ccccc3C(=O)O)cc2)c1C | – | inactive: -2.52%
CCOc1ccc2nc(NC(=O)CC3Oc4ccccc4NC3=O)sc2c1 (stereo not drawn) | inconclusive: 0.73 µM [inhibitor, full curve, poor fit] | –
O=C(CNC(=O)c1ccccc1F)c1ccc(Br)cc1 | inconclusive: 10.3 µM [activator, partial curve] | –
Cc1ccccc1C(=O)N1CCC(C(=O)NCCc2ccc(S(N)(=O)=O)cc2)CC1 | – | inactive: -2.13%
C/C(=N\N=C(N)N)c1ccc(Cl)cc1 | inconclusive: 18.4 µM [inhibitor, partial curve] | –
O=C(CSc1nc(Nc2ccccc2)nc(N2CCOCC2)n1)N1CCCC1 | inconclusive: 7.31 µM [inhibitor, single point] | –
CCOc1ccc(NC(=O)c2nnn(CC(=O)Nc3ccccc3OC)c2N)cc1 | inconclusive: 7.31 µM [activator, partial curve, poor fit] | –
Cc1oc(-c2cc(F)ccc2F)nc1CN1CCN(c2ncnc3ccccc23)CC1 | inconclusive: 29.1 µM [inhibitor, single point] | –

3 compounds already listed, sorted by count of non-hydrogen atoms, descending:
SMILES | Potency | activity change, negative = inhibition
O=C(NCc1nc2ccccc2[nH]1)C1=C[C@H](c2ccc3c(c2)OCO3)C[C@H](OCc2ccc(CO)cc2)O1 | inconclusive: 13 µM [inhibitor, single point] | –
Cc1oc(-c2cc(F)ccc2F)nc1CN1CCN(c2ncnc3ccccc23)CC1 | inconclusive: 29.1 µM [inhibitor, single point] | –
O=C(CSc1nc(Nc2ccccc2)nc(N2CCOCC2)n1)N1CCCC1 | inconclusive: 7.31 µM [inhibitor, single point] | –
